The list shows a part of the results. The data scatter; read single values as rough.
Experiments:
[1] = compound: ClCC(=O)N[C@@H]1CCCc2ccccc12; test: log2 mean competition ratio of IA-DTB cysteine labelling (DMSO/compound) (log2 ratio); higher = stronger cysteine engagement by compound; conditions: treatment time: 4 h, cell line lysate: HEK293T
Method: (§1)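 IA-DTB competitive cysteine chemoproteomics in HEK293T RIPA lysate. Lysates were treated with compound 29 or 30 at 50 or 200 µM for 4 h, then IA-DTB (500 µM, 1 h), trypsin-digested, NeutrAvidin-enriched and analysed by diaPASEF. Competition ratio = intensity DMSO / intensity compound (n=4 treated, n=64 DMSO); binding: mean log2 CR ≥ 1 and p ≤ 0.05 plus QC filters. Target is the cysteine site.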

Sequences of proteins named here, by UniProt entry; tags and fusion partners are left off. A change or cut given only in a name is not applied to a line headed by its entry. Residues count along the entry.
UniProt P53794: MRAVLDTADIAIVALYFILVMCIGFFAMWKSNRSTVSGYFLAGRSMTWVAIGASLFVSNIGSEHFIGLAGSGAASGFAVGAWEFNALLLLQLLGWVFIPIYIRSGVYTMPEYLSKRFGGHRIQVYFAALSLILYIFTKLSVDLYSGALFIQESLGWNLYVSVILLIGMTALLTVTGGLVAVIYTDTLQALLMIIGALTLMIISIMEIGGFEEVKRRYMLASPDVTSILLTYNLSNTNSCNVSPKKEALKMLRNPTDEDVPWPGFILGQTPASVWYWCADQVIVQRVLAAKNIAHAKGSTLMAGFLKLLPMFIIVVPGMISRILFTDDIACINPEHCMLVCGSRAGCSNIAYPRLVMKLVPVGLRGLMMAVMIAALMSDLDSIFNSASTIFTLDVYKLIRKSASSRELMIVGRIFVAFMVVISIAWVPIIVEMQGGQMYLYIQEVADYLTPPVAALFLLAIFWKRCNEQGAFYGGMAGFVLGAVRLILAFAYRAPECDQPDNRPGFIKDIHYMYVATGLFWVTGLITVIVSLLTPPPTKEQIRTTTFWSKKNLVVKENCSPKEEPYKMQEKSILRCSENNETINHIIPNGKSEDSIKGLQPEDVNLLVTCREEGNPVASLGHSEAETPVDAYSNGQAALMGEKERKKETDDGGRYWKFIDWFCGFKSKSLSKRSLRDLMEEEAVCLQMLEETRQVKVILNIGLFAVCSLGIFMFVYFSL
UniProt Q8IY18: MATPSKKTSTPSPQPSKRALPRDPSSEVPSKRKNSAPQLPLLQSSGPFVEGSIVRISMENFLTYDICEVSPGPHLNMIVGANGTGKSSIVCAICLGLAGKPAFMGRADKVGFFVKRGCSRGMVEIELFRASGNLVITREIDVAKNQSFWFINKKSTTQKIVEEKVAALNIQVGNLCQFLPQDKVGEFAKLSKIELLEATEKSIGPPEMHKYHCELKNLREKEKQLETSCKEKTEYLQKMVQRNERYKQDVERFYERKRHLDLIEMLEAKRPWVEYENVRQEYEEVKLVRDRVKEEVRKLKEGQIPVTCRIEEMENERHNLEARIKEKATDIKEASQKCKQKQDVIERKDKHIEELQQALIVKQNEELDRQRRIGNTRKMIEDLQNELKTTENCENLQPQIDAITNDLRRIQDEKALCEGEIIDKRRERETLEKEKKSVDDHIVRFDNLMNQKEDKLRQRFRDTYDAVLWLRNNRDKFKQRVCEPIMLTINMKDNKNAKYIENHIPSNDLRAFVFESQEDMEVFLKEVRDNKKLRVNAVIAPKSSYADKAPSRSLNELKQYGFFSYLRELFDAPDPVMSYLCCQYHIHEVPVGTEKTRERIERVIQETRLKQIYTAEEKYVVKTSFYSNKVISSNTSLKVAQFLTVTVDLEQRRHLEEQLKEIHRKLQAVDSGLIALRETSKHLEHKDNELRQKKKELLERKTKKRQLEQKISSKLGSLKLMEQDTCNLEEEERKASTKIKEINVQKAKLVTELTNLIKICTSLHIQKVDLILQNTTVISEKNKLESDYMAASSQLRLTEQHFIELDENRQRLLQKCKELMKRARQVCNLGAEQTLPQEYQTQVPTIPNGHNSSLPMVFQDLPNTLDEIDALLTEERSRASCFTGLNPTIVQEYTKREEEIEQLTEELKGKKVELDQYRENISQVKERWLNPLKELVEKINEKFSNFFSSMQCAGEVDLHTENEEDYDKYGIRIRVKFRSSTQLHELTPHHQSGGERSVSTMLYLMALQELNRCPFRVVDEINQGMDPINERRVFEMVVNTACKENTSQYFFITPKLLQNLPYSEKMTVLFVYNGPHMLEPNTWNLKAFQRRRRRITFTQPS
UniProt Q8WUM9: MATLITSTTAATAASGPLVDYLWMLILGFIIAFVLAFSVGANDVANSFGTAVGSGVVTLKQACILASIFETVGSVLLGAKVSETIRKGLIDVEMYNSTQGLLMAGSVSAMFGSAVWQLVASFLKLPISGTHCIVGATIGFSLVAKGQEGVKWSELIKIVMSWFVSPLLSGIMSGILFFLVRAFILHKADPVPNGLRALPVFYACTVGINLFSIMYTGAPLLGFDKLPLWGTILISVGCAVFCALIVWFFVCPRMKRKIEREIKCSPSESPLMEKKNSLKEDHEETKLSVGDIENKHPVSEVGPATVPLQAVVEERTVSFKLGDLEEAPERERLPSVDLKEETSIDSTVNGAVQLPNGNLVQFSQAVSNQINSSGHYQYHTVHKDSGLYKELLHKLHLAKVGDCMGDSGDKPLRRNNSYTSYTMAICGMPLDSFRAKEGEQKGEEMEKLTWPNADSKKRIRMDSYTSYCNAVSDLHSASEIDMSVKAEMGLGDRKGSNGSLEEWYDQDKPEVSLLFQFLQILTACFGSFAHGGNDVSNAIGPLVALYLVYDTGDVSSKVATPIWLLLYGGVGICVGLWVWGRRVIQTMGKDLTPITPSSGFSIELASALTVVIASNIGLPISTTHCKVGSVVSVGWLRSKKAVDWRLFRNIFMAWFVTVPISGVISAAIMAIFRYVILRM
UniProt P41440: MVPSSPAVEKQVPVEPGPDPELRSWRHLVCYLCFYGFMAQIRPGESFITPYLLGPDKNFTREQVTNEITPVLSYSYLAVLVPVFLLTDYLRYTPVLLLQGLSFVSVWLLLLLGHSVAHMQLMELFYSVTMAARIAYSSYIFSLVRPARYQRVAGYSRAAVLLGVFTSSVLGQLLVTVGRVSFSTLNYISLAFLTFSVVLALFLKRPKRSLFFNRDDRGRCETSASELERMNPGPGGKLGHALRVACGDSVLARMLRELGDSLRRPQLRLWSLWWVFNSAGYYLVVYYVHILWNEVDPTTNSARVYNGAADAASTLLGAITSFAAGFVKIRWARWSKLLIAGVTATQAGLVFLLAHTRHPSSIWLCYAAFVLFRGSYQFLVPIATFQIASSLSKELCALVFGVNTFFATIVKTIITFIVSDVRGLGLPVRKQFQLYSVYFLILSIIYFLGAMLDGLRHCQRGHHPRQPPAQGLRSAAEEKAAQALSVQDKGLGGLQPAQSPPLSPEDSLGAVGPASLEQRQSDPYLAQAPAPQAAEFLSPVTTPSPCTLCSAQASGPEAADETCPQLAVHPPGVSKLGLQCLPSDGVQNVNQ
UniProt Q96R06, 798-825: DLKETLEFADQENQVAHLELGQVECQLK
UniProt Q14683, 976-1000: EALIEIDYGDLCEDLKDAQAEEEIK
UniProt Q92922, whole entry, looked up: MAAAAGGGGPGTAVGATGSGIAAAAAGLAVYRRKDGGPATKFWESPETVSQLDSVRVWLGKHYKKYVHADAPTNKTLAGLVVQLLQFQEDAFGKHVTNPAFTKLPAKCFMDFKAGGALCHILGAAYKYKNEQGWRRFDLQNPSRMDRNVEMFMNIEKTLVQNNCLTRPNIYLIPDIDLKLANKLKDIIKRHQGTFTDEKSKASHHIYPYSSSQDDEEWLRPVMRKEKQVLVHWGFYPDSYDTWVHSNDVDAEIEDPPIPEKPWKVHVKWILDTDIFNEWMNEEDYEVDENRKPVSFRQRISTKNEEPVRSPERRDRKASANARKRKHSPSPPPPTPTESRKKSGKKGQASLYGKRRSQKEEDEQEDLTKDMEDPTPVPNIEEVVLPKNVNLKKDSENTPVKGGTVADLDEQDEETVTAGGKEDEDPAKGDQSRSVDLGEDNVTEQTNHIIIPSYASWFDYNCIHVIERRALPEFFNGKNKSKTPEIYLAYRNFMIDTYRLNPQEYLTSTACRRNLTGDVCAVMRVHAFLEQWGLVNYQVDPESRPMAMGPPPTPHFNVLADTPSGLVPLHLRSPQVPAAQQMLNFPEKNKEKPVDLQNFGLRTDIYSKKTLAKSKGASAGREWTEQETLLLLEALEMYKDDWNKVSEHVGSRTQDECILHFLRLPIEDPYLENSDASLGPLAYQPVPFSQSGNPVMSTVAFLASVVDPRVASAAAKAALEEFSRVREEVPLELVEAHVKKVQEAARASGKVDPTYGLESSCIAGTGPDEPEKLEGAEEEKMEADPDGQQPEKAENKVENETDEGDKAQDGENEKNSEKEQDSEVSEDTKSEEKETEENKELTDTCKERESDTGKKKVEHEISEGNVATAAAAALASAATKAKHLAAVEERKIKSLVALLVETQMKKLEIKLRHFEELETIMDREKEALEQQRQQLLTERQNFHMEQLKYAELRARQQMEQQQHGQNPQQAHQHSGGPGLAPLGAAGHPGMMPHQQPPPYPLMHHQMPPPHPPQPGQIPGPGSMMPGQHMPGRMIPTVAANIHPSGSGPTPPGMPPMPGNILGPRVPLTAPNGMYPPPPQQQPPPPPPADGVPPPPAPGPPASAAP
UniProt Q15758: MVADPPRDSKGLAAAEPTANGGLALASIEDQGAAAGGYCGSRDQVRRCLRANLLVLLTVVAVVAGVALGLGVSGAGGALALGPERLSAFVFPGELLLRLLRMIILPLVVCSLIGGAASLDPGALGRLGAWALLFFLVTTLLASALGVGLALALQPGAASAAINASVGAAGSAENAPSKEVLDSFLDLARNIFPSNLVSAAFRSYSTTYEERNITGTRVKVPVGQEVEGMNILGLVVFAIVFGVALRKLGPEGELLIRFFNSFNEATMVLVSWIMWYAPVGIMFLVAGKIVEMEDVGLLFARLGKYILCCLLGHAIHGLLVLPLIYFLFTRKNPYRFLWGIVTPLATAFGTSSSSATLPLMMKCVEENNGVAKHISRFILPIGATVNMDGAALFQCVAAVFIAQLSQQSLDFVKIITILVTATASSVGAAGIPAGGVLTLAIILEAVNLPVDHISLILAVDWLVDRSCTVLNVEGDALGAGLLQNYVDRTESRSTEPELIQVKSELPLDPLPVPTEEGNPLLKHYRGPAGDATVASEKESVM
UniProt Q5VYV7: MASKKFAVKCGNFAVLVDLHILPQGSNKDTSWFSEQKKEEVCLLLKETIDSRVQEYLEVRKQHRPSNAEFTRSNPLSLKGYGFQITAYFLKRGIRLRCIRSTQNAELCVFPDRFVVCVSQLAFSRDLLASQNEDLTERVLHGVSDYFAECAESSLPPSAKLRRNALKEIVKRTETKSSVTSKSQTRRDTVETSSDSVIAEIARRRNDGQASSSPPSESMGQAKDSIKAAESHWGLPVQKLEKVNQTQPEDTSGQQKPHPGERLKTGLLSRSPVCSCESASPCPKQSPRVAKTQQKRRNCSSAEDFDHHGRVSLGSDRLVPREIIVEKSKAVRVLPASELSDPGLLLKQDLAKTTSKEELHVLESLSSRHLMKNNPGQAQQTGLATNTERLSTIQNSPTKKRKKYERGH
UniProt Q8IX90: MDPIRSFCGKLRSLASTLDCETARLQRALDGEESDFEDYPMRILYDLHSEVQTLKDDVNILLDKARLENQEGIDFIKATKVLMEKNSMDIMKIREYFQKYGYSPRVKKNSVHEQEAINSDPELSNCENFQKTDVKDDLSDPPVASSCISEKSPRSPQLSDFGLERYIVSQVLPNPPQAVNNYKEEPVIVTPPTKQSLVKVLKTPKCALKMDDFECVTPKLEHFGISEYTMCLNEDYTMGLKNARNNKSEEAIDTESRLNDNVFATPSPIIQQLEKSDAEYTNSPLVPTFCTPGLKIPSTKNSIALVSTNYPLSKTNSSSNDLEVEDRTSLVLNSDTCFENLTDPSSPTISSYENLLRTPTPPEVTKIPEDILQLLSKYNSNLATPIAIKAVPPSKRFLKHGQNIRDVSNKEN
UniProt Q8ND83, 310-338: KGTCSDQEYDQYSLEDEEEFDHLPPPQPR
UniProt Q07617: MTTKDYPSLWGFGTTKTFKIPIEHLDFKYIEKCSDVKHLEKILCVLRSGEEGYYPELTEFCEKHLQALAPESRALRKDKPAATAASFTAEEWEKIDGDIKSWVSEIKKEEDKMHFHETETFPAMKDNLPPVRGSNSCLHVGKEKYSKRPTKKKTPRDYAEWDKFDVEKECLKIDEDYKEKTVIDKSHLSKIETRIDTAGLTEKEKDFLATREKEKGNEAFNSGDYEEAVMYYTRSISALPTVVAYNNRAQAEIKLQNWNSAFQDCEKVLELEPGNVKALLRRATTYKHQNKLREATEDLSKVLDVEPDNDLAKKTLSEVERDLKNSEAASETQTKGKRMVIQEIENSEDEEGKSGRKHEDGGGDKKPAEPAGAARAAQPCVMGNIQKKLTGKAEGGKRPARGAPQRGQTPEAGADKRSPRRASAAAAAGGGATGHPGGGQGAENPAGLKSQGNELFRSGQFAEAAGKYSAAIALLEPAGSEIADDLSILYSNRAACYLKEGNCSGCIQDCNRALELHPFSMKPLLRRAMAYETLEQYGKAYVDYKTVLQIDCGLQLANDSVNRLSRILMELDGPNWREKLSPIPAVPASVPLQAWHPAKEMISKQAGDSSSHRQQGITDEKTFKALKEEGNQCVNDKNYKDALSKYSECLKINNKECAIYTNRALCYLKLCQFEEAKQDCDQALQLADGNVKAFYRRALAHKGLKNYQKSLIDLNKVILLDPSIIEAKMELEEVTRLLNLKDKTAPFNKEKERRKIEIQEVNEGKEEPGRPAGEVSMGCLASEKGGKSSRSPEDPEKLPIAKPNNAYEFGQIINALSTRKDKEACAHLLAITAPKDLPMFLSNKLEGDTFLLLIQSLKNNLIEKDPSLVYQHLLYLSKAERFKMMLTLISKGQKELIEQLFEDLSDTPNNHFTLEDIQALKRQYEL

[2] = compound: ClCC(=O)N[C@H]1CCCc2ccccc12; test: as above; conditions: treatment time: 4 h, cell line lysate: HEK293T
Method: as §1

| Target | log2 mean competition ratio ([1]; 50 µM) | log2 mean competition ratio ([1]; 200 µM) | log2 mean competition ratio ([2]; 50 µM) | log2 mean competition ratio ([2]; 200 µM) |
| --- | --- | --- | --- | --- |
| SMARCAL1 C508 (UniProt Q9NZC9) | -0.0376 | -0.533 | -0.395 | -0.16 |
| SLC25A25 C322 (UniProt Q6KCM7) | 0.355 | 0.126 | -0.27 | 0.0921 |
| SLC5A3 C609 (UniProt P53794) | 0.298 | 0.0158 | 0.137 | 0.243 |
| SMC5 C881 (UniProt Q8IY18) | 0.193 | -0.0289 | 0.564 | -0.0567 |
| SMARCA4 C423 (UniProt P51532) | -0.137 | -0.251 | 0.494 | -0.166 |
| SMARCD1 C339 (UniProt Q96GM5) | -0.33 | -0.41 | – | -0.234 |
| SLMAP C286 (UniProt Q14BN4) | -0.246 | -0.0357 | -0.395 | -0.036 |
| SNX12 C67 (UniProt Q9UMY4) | 0.0812 | -0.212 | 0.141 | -0.352 |
| SMG1 C2738 (UniProt Q96Q15) | -0.216 | 0.0938 | -0.206 | -0.065 |
| SLC20A1 C403 (UniProt Q8WUM9) | 0.0607 | 0.0888 | 0.204 | 0.0103 |
| SLC19A1 C220 (UniProt P41440) | -0.0351 | 0.0116 | -0.193 | 0.0587 |
| SLC7A6OS C27 (UniProt Q96CW6) | 0.0239 | 0.00907 | -0.46 | -0.129 |
| SMAD5 C378 (UniProt Q99717) | -0.0739 | -0.169 | 0.334 | -0.0364 |
| SPAG5 C822 (UniProt Q96R06) | -0.329 | 0.09 | 0.00652 | 0.118 |
| SLC25A13 C377 (UniProt Q9UJS0) | 0.0915 | -0.125 | 0.398 | -0.141 |
| SMC1A C987 (UniProt Q14683) | -0.043 | 0.0322 | 0.162 | -0.234 |
| SMYD3 C41 (UniProt Q9H7B4) | -0.0705 | -0.0753 | 0.416 | 0.153 |
| SNX29 C121 (UniProt Q8TEQ0) | 0.122 | 0.155 | -0.148 | 0.0632 |
| SLC39A10 C153 (UniProt Q9ULF5) | -0.374 | 0.35 | -0.669 | 0.0589 |
| SNRNP48 C132 (UniProt Q6IEG0) | -0.222 | 0.148 | -0.185 | 0.0507 |
| SMARCC1 C845 (UniProt Q92922) | -0.323 | 0.352 | -0.218 | 0.412 |
| SMC6 C251 (UniProt Q96SB8) | -0.107 | -0.0483 | -0.371 | 0.0857 |
| SLCO2A1 C143 | -0.51 | 0.164 | -0.363 | 0.462 |
| SMC5 C308 (UniProt Q8IY18) | 0.04 | -0.376 | -0.0388 | -0.0485 |

Taken from above:
log2 mean competition ratio ([2]; 50 µM), SMC1A C987 (UniProt Q14683) reads 0.162
log2 mean competition ratio ([1]; 50 µM), SMYD3 C41 (UniProt Q9H7B4) reads -0.0705

More results:

| Target | log2 mean competition ratio ([1]; 50 µM) | log2 mean competition ratio ([1]; 200 µM) | log2 mean competition ratio ([2]; 50 µM) | log2 mean competition ratio ([2]; 200 µM) |
| --- | --- | --- | --- | --- |
| SMO C683 | -0.143 | 0.203 | -0.323 | -0.195 |
| SLC49A4 C135 | -0.0197 | -0.338 | -0.482 | 0.0303 |
| SLC1A5 C363 (UniProt Q15758) | -0.0559 | 0.161 | -0.094 | 0.105 |
| SLX4IP C299 (UniProt Q5VYV7) | 0.0282 | 0.0175 | -0.102 | 0.0787 |
| SKA3 C20 (UniProt Q8IX90) | -0.0323 | 0.0824 | 0.15 | -0.0551 |
| SLC25A46 C239 (UniProt Q96AG3) | -0.0967 | -0.141 | -0.375 | -0.0729 |
| SMARCA2 C399 (UniProt P51531) | -0.136 | 0.0369 | 0.173 | -0.149 |
| SMARCD2 C365 (UniProt Q92925) | -0.139 | 0.48 | -0.0564 | 0.224 |
| SMARCA5 C259 (UniProt O60264) | -0.146 | 0.218 | -0.479 | 0.188 |
| SLC39A6 C303 (UniProt Q13433) | -0.00371 | -0.00862 | 0.079 | 0.0144 |
| SMC5 C229 (UniProt Q8IY18) | -0.344 | 0.246 | -0.0427 | 0.236 |
| SMG1 C890 (UniProt Q96Q15) | 0.0576 | -0.375 | 0.0037 | -0.182 |
| SLC7A2 C376 (UniProt P52569) | -0.149 | -0.294 | 0.367 | -0.203 |
| SMCHD1 C1710 (UniProt A6NHR9) | -0.0904 | -0.162 | -0.0726 | 0.0385 |
| SNUPN C356 (UniProt O95149) | 0.317 | 0.119 | 0.188 | -0.0615 |
| SMARCC1 C520 (UniProt Q92922) | -0.142 | -0.0507 | -0.05 | -0.0196 |
| SLK C1212 | -0.186 | -0.00775 | 0.00211 | -0.00393 |
| SLC43A2 C392 (UniProt Q8N370) | -0.138 | -0.126 | -0.0419 | -0.45 |
| SMCHD1 C1656 (UniProt A6NHR9) | -0.0523 | -0.0496 | 0.198 | -0.17 |
| SLAIN1 C313 (UniProt Q8ND83) | 0.155 | -0.024 | 0.0806 | -0.152 |
| SPAG1 C552 (UniProt Q07617) | -0.00704 | 0.0482 | -0.0227 | -0.235 |
| SLC47A1 C497 | 0.0308 | -0.0932 | 0.373 | -0.282 |
| SNAPIN C66 (UniProt O95295) | -0.16 | 0.0145 | 0.0673 | 0.251 |
